PubChem BioAssay AID1508597 – Cure First – 2020
Shown is a random part of the about 2,100 reagents, under one of the conditions tested. 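Calls flag viability under 80% in either arm, not effects specific to rucaparib; the reference for percent is not stated.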 Not given: the 100% reference.

Test: 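Genes whose silencing sensitises or protects ovarian cancer cells against rucaparib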 (primary screen)
System: human ovarian carcinoma lines grown from tumours: OCI-P5x (papillary serous) and OCI-C5x (clear cell)
Knock-down reagent: siRNA pool against human genes, 1.25 pmol siRNA per well
Duration: 72 h or 96 h, depending on the cell culture
Conditions: rucaparib 20 µM (about IC30) or vehicle, present until read-out
Rucaparib or vehicle: Vehicle
Cell line: OCI-C5x (clear cell)
Detection: 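Luminescent ATP-based viability assay read 72 or 96 h after transfection, depending on culture, given as normalised percent viability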
Direction: viability, normalised: higher = more viable cells remaining
Hit rule: 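Active when normalised viability falls below 80 percent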
Meaning of the calls: active = viability under 80%; inactive = viability 80% or more

The opening 2 entries, ahead of the listing:
gene,technical replicate,"viability, normalised (%)",activity call
TH,1,40.9,active
TH,2,59.7,active

The listing, repeating the preview:
gene,technical replicate,"viability, normalised (%)",activity call
TH,1,40.9,active
TH,2,59.7,active
TH,3,54.7,active
KMT5A,1,15.8,active
KMT5A,2,19.5,active
KMT5A,3,25.5,active
CDC14B,1,40.7,active
CDC14B,2,48.6,active
CDC14B,3,38.3,active
TJP2,1,67.9,active
TJP2,2,68.2,active
TJP2,3,49.2,active
MAP4K4,1,70.8,active
MAP4K4,2,36.9,active
MAP4K4,3,67.2,active
GRK4,1,52.4,active
GRK4,2,51.8,active
GRK4,3,52.4,active
SP110,1,41.2,active
SP110,2,38.9,active
SP110,3,24.7,active
PELP1,1,57,active
PELP1,2,47.4,active
PELP1,3,40.6,active
